This is an account of results in article PMC11965567.

These are yes or no findings as the source states them, for the method shown. In cells and extracts the contact can be indirect. Some results given as binding are weak or reduced against the parent protein; the word gives no strength.

This test has as its target T1, Calpastatin (CAST), endogenous (human (endogenous in MDA-MB-231, HCC-1954 and T47D)) (UniProt P20810).
T1 sequence: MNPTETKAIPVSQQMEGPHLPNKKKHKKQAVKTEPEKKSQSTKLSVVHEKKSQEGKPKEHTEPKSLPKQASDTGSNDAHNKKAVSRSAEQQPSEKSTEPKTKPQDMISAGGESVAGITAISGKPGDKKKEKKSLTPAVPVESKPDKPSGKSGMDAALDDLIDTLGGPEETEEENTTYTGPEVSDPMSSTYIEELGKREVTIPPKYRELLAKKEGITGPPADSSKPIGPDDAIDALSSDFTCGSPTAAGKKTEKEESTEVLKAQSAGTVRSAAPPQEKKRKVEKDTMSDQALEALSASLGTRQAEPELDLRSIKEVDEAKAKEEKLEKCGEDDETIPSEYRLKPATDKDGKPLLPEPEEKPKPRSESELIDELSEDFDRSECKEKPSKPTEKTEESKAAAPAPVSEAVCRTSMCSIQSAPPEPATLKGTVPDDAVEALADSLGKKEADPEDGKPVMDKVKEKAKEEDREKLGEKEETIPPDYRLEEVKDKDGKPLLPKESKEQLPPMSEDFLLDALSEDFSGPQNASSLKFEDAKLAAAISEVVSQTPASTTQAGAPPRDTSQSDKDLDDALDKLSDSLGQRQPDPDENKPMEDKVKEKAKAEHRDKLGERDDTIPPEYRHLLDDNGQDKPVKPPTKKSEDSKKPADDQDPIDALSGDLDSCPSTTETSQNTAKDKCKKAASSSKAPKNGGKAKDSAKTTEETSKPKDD
Nature of the test: co-IP; reciprocal co-IP from MDA-MB-231 and HCC-1954 cell lysates with anti-TXNIP or anti-CAST antibodies (IgG as control), western blotting for TXNIP and CAST. (In general: Immunoblotting shows a protein as a band on a membrane.)

B1: Thioredoxin-interacting protein (TXNIP), endogenous (protein, UniProt Q9H3M7 1-391)
chain: MVMFKKIKSFEVVFNDPEKVYGSGEKVAGRVIVEVCEVTRVKAVRILACGVAKVLWMQGSQQCKQTSEYLRYEDTLLLEDQPTGENEMVIMRPGNKYEYKFGFELPQGPLGTSFKGKYGCVDYWVKAFLDRPSQPTQETKKNFEVVDLVDVNTPDLMAPVSAKKEKKVSCMFIPDGRVSVSARIDRKGFCEGDEISIHADFENTCSRIVVPKAAIVARHTYLANGQTKVLTQKLSSVRGNHIISGTCASWRGKSLRVQKIRPSILGCNILRVEYSLLIYVSVPGSKKVILDLPLVIGSRSGLSSRTSSMASRTSSEMSWVDLNIPDTPEAPPCYMDVIPEDHRLESPTTPLLDDMDGSQDSPIFMYAPEFKFMPPPTYTEVDPCILNNNVQ
Regarding B1, the binding entry was “binds”.

B2: Thioredoxin-interacting protein (TXNIP), overexpressed in HCC-1954 cells (protein, UniProt Q9H3M7 1-391)
chain: MVMFKKIKSFEVVFNDPEKVYGSGEKVAGRVIVEVCEVTRVKAVRILACGVAKVLWMQGSQQCKQTSEYLRYEDTLLLEDQPTGENEMVIMRPGNKYEYKFGFELPQGPLGTSFKGKYGCVDYWVKAFLDRPSQPTQETKKNFEVVDLVDVNTPDLMAPVSAKKEKKVSCMFIPDGRVSVSARIDRKGFCEGDEISIHADFENTCSRIVVPKAAIVARHTYLANGQTKVLTQKLSSVRGNHIISGTCASWRGKSLRVQKIRPSILGCNILRVEYSLLIYVSVPGSKKVILDLPLVIGSRSGLSSRTSSMASRTSSEMSWVDLNIPDTPEAPPCYMDVIPEDHRLESPTTPLLDDMDGSQDSPIFMYAPEFKFMPPPTYTEVDPCILNNNVQ
As for B2, the binding entry is “binds”.
